Screening data, single-dose tests

Chains of the proteins cited; added tags and fusions are not shown. Residues count along the entry.
UniProt P9WFT3, whole entry: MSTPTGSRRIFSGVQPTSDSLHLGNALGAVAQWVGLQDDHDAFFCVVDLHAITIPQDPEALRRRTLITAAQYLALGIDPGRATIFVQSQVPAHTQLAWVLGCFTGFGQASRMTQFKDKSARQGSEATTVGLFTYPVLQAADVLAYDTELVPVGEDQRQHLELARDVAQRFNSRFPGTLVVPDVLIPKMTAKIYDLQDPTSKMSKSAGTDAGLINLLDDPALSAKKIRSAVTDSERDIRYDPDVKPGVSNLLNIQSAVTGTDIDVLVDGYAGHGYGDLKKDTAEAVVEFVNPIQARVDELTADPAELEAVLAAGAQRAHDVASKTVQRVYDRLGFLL
UniProt Q4DA54, 1-478: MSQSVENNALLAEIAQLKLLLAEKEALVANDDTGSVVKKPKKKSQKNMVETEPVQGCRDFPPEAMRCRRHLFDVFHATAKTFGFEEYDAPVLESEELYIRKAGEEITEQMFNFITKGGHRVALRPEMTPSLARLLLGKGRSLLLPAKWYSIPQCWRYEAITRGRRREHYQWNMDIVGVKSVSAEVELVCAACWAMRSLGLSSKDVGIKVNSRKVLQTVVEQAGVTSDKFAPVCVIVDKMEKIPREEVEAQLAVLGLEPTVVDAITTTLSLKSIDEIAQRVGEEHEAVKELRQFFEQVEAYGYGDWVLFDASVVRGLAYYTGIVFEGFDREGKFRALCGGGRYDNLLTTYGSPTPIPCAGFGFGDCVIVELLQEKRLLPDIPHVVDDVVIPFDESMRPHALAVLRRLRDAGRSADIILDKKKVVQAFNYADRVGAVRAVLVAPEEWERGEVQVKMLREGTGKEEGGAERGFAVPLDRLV

MtTrpRS: 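Enzyme assay of tryptophanyl-tRNA synthetase; the read-out is not stated. Target: Tryptophan-tRNA ligase, Mycobacterium tuberculosis (UniProt P9WFT3). Tested at 10 µM. Direction is not recorded; retested compounds ran higher, which suggests that high means inhibition. Size under these conditions: about 65,000 compounds, about 64 of them at 50% or above in at least one test.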
Leishmania in macrophages: 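Cell assay of Leishmania donovani living inside macrophages; the read-out is not stated. Concentration: 30 µM. The record gives no direction; compounds that gave an IC50 in retests scored well above the rest, so higher reads as stronger inhibition. About 69,000 compounds were tested under these conditions; 1.5% (about 1,000) showed 50% or more at least once.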
TcHisRS: 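Histidine-tRNA ligase, Trypanosoma cruzi CL Brener (UniProt Q4DA54). Enzyme assay of histidyl-tRNA synthetase; the read-out is not stated. Compounds at 30 µM. Higher reads as stronger inhibition (inferred: compounds with an IC50 in retests scored well above the rest). Of about 69,000 compounds tested this way, about 31 (0.045%) reached 50% or more in at least one test.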

Values are the deposited “Percent Effect”, in %. The record does not define 0% and 100%; most values in the screen are far below 50% and negative numbers occur (in some assays of this library far below -100). Compounds were drawn at random from those tested, without regard to their results. Two or more numbers in one place are separate tests of the same structure; such repeats can differ widely.

* Cc1csc2nc3n(c(=O)c12)CCN(Cc1c[nH]cn1)CC3.Cl | Leishmania in macrophages: 17.17% and 19%
* CC(C)c1nn(C)c(N(C)C)c1CNCCC(=O)NC1CCCC1 | MtTrpRS: 3.996%; Leishmania in macrophages: 0.5478%; TcHisRS: -3.788%
* CNc1cccc(C2CCCN(C(=O)c3coc(C)n3)C2)n1 (stereo unspecified) | Leishmania in macrophages: -24.85%; TcHisRS: 12.77%
* CCOCC(=O)NCCn1ccc(-c2ccccn2)n1 | MtTrpRS: 1.018%; Leishmania in macrophages: 14.51%; TcHisRS: 3%
* Nc1ncnc2nc(C3CCN(C(=O)Cc4ccc(F)cc4)C3)ccc12 (stereo unspecified) | MtTrpRS: 0.7812%; Leishmania in macrophages: 20.65%; TcHisRS: 1.916%
* O=C(O)CNC(=O)Cc1csc(-c2ccccc2F)n1 | MtTrpRS: -3.537%; Leishmania in macrophages: -5.215%; TcHisRS: 6.931%
* CC(Cn1ccnc1)NC(=O)NCCc1ccc(Cl)s1 (stereo unspecified) | MtTrpRS: -7.025%; Leishmania in macrophages: 9.103%; TcHisRS: 3.509%
* O=C(C1CNCCO1)N1CCCC(c2ccccc2)(c2ccccc2)C1 (stereo unspecified) | MtTrpRS: -3.58%; Leishmania in macrophages: 80.57%; TcHisRS: 1.19%
* O=C(O)C(F)(F)F.[H][C@@]12OCCN(C(=O)c3cccn3C)[C@@]1([H])CC[C@H]2OCc1cccnc1 | Leishmania in macrophages: 16.84%
* CC(C)Cc1nc(CN2CCc3onc(-c4cccc(F)c4)c3C2)no1 | MtTrpRS: 4.67%; Leishmania in macrophages: -5.445%; TcHisRS: 20%
* Cl.c1nnc(Nc2cncc(C3CCCN3)n2)s1 (stereo unspecified) | Leishmania in macrophages: 35.87%
* O=C(CCOc1ccccc1F)NC1CCCN(c2ccccn2)C1 (stereo unspecified) | MtTrpRS: -9.261%; Leishmania in macrophages: 24.67%; TcHisRS: 6.818%
* CCOC(=O)c1sc(NC(=O)C(C)C)c(C#N)c1C | MtTrpRS: 0.4402%; Leishmania in macrophages: -17.21%; TcHisRS: 9.548%
* Cc1cccc(NCCOc2cccc(C#N)c2)c1C(N)=O | MtTrpRS: 6.46%; Leishmania in macrophages: 12.79%; TcHisRS: 0%
* CNc1nccnc1C1CN(C(=O)c2c[nH]cn2)CCO1 (stereo unspecified) | MtTrpRS: -7.381%; Leishmania in macrophages: -23.22%; TcHisRS: 3.876%
* CC(=O)N(Cc1ncc(C)o1)C1CCN(Cc2nccn2C)C1 (stereo unspecified) | MtTrpRS: 5.031%; Leishmania in macrophages: 16.91%; TcHisRS: 4.373%
* COCc1nc(CN2CC(C)(c3ccccc3)CCC2=O)no1 (stereo unspecified) | MtTrpRS: -1.613%; Leishmania in macrophages: -4.416%; TcHisRS: 6.818%
* Cc1cnn(CC2CCCN2Cc2noc(-c3ccccc3)n2)c1 (stereo unspecified) | MtTrpRS: -3.195%; Leishmania in macrophages: -1.482%; TcHisRS: 6.197%
* CCCn1cnc2c1CN(S(=O)(=O)Cc1ccccc1)[C@H](C(=O)OC)C2 | MtTrpRS: -4.958%; Leishmania in macrophages: 0.5007%; TcHisRS: -5.473%
* Cc1cc(CN2C[C@H](OCC3CCOCC3)[C@H]3COC[C@H]32)oc1C | TcHisRS: 3.911%
* CC(C)[C@H](C)NC1CCN(c2ccc(-c3cscn3)cc2)CC1 | MtTrpRS: 1.079%; Leishmania in macrophages: 15.74%; TcHisRS: 0.578%
* O=C(c1cccs1)N1CCC(O)(CN2CCc3ccccc3C2)C1 (stereo unspecified) | MtTrpRS: 1.421%; Leishmania in macrophages: 29.52%; TcHisRS: 3.784%
* Cn1cc(CN2CC3(CCN(C(=O)c4cscn4)C3)C2)cn1 | MtTrpRS: 1.891%; Leishmania in macrophages: 29.12%; TcHisRS: 0.8264%
* Cc1cc(C)c(S(=O)(=O)Nc2c(C)noc2C)cc1C(=O)O | MtTrpRS: -1.815%; Leishmania in macrophages: -2.351%; TcHisRS: 3.158%
* CN(C)CCCN(Cc1cnn(C)c1)Cc1ccco1 | MtTrpRS: -3.958%; TcHisRS: 5.303%
* CC(C)(C)CC(=O)NCC(=O)Nc1ccn(CCCn2ccnc2)n1 | MtTrpRS: -3.661%; Leishmania in macrophages: 3.704%; TcHisRS: 0%
* Cc1ccc(N2CCC3(CCC(=O)N3Cc3ccncc3)CC2)nn1.O=C(O)C(F)(F)F | Leishmania in macrophages: 15.94%
* C[C@@H]1CN(C(=O)c2cc(Cn3ccc4ccccc43)[nH]n2)C[C@H](C)O1 | MtTrpRS: 1.485%; Leishmania in macrophages: 17.94%; TcHisRS: -2.242%
* Cc1ccsc1C(CNC(=O)c1cc(=O)[nH]c(=O)[nH]1)N(C)C (stereo unspecified) | MtTrpRS: -5.061%; Leishmania in macrophages: -9.633%; TcHisRS: -1.739%
* CCCc1nnc(C(=O)N(C)Cc2cnc3ccccn23)o1 | MtTrpRS: -2.677%; Leishmania in macrophages: -27.09%; TcHisRS: 8.081%

The values are deposited in ChEMBL (CHEMBL3988442, “University of Dundee, Small-Polar-MMV Screening Library” (2021)).